This is one part of the list.
What was measured:
Assay in all cases: log2 fold change, soluble protein after heating vs DMSO (PISA); higher = thermal stabilisation; K562 lysate, 10 uM; active = over 0.2 and 3.5 SD of the protein, either way, in both replicates (recomputed)
[1] = compound: NCC(=O)Nc1ccc(-n2nc(C(F)(F)F)cc2-c2ccc3c(ccc4ccccc43)c2)cc1
Outline: (§1)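 Following dounce homogenisation of K562 pellets in PBS pH 7.4 with 1 mM MgCl2, crude extract at 1 mg/mL protein was incubated for 30 min with 10 μM compound. Aliquots were then heated for 3 min over 48°C-58°C and pooled, NP-40 was added to 0.5% at 4°C, and soluble protein was recovered as the supernatant at 21,000xg for 90 min. Channel-sum-equalised TMTpro 16plex LC-MS/MS quantified this protein. Each value, from duplicates, is a log-two fold change in thermal stability relative to solvent controls.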

By UniProt entry, the sequences of proteins in these tests, tags left out. Where a name states a change or a piece, a line headed by the entry shows the natural chain unless it says otherwise.
UniProt O75251, whole entry, looked up: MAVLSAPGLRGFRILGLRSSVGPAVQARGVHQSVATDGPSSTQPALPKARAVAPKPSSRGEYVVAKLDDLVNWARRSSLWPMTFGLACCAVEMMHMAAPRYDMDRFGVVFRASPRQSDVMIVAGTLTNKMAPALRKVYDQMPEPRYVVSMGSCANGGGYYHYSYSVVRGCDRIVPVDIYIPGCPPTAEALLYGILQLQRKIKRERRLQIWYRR
UniProt Q16718, whole entry, looked up: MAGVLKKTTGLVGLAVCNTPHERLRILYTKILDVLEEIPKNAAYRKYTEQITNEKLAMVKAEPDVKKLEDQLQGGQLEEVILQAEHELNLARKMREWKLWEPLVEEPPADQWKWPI
UniProt P52848: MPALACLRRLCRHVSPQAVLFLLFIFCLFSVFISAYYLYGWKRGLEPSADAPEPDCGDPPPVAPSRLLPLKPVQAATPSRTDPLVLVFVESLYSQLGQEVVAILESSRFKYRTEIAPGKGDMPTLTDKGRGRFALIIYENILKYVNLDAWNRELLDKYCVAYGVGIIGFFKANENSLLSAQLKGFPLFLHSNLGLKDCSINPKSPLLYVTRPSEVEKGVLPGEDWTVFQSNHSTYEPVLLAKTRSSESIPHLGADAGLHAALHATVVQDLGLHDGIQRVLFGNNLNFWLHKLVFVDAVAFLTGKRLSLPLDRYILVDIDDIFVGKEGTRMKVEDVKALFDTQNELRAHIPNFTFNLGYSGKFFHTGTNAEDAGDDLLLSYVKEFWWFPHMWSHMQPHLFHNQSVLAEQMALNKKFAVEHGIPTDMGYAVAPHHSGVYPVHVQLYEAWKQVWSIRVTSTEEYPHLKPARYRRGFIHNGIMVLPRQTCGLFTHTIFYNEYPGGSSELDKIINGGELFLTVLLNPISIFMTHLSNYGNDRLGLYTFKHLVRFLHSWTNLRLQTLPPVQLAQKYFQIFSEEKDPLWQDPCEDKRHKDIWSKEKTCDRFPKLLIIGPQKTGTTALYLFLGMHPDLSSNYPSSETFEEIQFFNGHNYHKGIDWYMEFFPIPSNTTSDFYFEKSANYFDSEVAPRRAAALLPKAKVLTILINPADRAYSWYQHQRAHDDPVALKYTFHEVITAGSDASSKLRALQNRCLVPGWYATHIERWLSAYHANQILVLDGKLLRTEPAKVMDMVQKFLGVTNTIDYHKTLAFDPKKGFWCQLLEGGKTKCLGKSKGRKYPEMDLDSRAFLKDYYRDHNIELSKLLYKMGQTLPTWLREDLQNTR
UniProt Q5TEU4: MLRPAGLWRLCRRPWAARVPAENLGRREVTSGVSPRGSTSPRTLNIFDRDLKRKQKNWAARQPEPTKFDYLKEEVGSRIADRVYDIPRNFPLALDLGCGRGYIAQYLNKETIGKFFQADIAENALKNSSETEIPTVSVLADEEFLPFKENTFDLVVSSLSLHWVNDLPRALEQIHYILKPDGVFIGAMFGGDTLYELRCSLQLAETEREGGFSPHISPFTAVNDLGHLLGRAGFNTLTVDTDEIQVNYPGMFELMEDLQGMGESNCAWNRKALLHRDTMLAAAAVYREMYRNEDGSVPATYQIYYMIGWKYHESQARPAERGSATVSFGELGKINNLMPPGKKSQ
UniProt O95167, whole entry, looked up: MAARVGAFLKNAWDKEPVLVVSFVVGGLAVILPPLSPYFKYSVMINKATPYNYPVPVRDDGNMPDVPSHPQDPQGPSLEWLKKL
UniProt Q7L592: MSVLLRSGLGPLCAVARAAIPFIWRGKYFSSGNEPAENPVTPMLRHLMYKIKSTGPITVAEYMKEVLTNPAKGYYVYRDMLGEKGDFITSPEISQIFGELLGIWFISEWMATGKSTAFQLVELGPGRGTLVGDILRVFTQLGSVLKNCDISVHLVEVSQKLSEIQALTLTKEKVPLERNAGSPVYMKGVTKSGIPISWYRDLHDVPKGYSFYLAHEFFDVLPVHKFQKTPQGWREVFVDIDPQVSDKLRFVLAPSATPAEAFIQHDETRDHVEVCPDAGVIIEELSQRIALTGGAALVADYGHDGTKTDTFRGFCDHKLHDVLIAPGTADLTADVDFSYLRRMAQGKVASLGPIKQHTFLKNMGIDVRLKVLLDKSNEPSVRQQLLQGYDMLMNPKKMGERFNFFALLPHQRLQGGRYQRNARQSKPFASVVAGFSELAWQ
UniProt P56181: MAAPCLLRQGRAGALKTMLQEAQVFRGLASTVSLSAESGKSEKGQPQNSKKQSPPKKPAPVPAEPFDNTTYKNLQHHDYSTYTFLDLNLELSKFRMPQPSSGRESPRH
UniProt Q9NQR4: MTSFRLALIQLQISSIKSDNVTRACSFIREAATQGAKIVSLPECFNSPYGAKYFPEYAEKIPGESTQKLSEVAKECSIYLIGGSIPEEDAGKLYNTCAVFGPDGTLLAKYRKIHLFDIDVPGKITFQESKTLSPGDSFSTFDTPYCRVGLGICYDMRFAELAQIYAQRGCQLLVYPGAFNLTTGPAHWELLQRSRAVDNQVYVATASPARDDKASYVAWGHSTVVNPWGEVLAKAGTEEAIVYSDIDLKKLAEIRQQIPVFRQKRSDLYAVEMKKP
UniProt Q15843, whole entry, looked up: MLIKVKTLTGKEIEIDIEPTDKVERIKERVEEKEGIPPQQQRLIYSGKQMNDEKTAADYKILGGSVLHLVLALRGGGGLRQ
UniProt P49821, whole entry, looked up: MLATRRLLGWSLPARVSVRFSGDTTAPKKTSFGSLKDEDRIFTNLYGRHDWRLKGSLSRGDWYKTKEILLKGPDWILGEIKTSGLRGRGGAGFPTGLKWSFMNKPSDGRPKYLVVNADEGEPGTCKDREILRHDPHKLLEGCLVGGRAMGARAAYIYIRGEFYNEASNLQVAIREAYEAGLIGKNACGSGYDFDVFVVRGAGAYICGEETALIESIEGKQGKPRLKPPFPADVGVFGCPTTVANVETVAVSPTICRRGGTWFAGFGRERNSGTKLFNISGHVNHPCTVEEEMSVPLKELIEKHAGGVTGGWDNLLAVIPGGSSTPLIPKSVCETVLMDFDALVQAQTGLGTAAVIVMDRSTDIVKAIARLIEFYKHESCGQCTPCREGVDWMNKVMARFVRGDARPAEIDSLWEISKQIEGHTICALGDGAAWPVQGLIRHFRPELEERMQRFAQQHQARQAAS
UniProt O95096: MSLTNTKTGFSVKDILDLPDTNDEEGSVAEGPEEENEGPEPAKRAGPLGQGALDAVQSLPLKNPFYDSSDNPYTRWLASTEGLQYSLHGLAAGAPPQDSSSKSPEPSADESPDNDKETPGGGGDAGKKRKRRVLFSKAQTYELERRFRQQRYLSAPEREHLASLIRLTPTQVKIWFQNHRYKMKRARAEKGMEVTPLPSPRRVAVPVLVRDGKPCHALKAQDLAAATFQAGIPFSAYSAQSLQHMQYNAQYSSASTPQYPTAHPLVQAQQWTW
UniProt Q9BS92: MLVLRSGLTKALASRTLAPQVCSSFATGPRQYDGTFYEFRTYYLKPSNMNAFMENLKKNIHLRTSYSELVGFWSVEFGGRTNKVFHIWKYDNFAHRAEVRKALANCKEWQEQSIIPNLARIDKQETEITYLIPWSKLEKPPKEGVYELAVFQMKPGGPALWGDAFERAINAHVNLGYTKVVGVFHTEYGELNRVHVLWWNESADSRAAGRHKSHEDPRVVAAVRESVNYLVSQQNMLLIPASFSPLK
UniProt Q9NVX2: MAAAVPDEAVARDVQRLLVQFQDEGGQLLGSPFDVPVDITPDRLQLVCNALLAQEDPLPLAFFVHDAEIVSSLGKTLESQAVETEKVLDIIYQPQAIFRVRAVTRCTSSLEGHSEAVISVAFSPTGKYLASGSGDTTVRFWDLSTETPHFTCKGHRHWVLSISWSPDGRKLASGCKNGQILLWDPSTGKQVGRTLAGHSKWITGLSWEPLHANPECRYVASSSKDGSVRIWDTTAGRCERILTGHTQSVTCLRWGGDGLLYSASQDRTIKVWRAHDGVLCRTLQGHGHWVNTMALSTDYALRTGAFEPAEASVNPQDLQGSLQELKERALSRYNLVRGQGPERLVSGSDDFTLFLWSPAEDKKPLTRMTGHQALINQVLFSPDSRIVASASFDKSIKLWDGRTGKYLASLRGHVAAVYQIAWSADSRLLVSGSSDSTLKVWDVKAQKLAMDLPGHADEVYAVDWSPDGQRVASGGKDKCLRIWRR
UniProt O76041: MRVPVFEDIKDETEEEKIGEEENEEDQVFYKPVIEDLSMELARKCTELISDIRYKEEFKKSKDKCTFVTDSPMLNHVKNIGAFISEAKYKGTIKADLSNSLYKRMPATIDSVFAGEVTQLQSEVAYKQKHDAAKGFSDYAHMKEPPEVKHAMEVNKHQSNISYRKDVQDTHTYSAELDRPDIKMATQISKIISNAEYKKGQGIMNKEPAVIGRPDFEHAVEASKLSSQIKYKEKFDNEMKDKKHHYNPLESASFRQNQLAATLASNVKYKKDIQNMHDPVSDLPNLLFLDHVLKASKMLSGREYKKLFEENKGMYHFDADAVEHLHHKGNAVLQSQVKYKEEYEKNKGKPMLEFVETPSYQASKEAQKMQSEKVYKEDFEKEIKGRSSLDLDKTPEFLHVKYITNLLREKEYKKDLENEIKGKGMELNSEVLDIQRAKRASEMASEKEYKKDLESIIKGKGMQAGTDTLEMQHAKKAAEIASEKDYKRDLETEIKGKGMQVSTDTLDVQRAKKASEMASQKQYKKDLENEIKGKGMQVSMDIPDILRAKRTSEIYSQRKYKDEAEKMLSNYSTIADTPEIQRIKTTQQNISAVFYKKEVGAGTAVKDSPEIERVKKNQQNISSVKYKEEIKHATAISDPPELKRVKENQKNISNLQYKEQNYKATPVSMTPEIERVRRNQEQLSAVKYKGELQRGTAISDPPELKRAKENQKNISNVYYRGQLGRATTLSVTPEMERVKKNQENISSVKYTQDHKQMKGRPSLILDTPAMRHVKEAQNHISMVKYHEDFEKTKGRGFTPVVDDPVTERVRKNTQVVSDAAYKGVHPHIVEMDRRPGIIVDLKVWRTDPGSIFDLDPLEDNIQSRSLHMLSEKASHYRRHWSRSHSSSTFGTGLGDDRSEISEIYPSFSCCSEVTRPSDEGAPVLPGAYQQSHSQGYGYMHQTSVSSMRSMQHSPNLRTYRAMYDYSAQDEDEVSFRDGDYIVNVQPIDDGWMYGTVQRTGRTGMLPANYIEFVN
UniProt O75323: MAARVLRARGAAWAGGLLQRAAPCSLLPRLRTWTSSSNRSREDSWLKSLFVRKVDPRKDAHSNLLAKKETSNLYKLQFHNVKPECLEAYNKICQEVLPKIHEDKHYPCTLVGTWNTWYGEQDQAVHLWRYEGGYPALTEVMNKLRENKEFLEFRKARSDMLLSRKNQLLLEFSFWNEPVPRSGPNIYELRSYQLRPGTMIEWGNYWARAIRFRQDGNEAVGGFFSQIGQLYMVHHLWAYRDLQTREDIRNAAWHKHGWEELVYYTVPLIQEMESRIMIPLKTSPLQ
UniProt Q9BZQ8: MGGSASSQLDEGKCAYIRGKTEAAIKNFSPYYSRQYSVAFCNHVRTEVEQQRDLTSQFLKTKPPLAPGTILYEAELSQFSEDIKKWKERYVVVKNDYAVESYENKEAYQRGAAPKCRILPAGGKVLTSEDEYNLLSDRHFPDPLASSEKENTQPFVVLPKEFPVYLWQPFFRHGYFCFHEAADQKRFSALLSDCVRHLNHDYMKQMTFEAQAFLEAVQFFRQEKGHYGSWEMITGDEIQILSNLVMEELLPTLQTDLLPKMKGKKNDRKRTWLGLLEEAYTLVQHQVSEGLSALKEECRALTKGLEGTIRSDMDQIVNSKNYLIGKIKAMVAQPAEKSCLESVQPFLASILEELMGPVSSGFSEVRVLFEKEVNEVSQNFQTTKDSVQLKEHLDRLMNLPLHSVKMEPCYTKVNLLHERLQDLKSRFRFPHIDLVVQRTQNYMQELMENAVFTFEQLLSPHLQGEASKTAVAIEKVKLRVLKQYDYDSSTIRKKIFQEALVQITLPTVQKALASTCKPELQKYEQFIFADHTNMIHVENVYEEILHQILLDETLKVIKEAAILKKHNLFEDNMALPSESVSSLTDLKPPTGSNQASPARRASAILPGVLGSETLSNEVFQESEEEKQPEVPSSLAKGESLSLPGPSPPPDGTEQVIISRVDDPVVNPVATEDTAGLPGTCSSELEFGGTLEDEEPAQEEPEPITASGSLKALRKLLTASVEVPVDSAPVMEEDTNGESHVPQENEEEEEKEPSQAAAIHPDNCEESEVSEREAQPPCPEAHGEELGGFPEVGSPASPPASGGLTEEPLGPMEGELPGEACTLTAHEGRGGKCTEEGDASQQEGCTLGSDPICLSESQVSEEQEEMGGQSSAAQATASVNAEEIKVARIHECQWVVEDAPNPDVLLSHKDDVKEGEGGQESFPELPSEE
UniProt O43676, whole entry, looked up: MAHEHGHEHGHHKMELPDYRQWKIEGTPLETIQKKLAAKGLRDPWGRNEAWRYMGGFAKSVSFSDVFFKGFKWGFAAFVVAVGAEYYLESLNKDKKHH
UniProt O00217, whole entry, looked up: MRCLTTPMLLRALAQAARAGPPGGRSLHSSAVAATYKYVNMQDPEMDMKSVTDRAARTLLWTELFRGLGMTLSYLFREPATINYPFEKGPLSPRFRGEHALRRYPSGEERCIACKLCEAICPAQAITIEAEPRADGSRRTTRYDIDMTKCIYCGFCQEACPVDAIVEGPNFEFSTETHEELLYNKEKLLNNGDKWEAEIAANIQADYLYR

vorinostat = compound: O=C(CCCCCCC(=O)Nc1ccccc1)NO [vorinostat]
Outline: as §1

silmitasertib = compound: O=C(O)c1ccc2c(c1)nc(Nc1cccc(Cl)c1)c1ccncc12 [silmitasertib]
Outline: as §1

[2] = compound: O=C1NC(=O)C(c2cnc3ccccn23)=C1c1cn2c3c(cc(F)cc13)CN(C(=O)N1CCCCC1)CC2
Outline: as §1

entospletinib = compound: c1cn2cc(-c3ccc4cn[nH]c4c3)nc(Nc3ccc(N4CCOCC4)cc3)c2n1 [entospletinib]
Outline: as §1

Measured: log2 fold change

NDUFS7 (UniProt O75251)
inactive: [1] -0.015 | vorinostat 0.099 | silmitasertib 0.007 | [2] -0.037 | entospletinib 0.005

NDUFA5 (UniProt Q16718)
inactive: [1] 0 | vorinostat 0.079 | silmitasertib -0.034 | [2] 0.013 | entospletinib -0.067

NDST1 (UniProt P52848)
inactive: [1] -0.036 | vorinostat 0.202 | silmitasertib -0.055 | [2] 0 | entospletinib -0.118

NDUFAF5 (UniProt Q5TEU4)
inactive: [1] -0.023 | vorinostat 0.065 | silmitasertib 0.002 | [2] -0.006 | entospletinib -0.046

NDUFA3 (UniProt O95167)
inactive: [1] -0.017 | vorinostat 0.121 | silmitasertib 0.033 | [2] 0.014 | entospletinib 0.009

NDUFAF7 (UniProt Q7L592)
inactive: [1] -0.008 | vorinostat -0.061 | silmitasertib -0.024 | [2] 0.025 | entospletinib -0.011

NDUFV3 (UniProt P56181)
inactive: [1] 0.061 | vorinostat 0.097 | silmitasertib -0.08 | [2] 0.055 | entospletinib 0.062

NIT2 (UniProt Q9NQR4)
inactive: [1] -0.001 | silmitasertib -0.001 | [2] -0.007 | entospletinib 0.004
active: vorinostat 0.346

NEDD8 (UniProt Q15843)
inactive: [1] -0.033 | vorinostat 0.195 | silmitasertib -0.12 | [2] 0.038 | entospletinib -0.082

NEDD4L (UniProt Q96PU5)
inactive: [1] -0.02 | vorinostat -0.077 | silmitasertib 0.054 | [2] -0.008 | entospletinib 0.016

NEU1 (UniProt Q99519)
inactive: [1] -0.029 | vorinostat 0.079 | silmitasertib 0.007 | [2] -0.006 | entospletinib -0.025

NDUFV1 (UniProt P49821)
inactive: [1] 0.035 | vorinostat 0.051 | silmitasertib 0.031 | [2] 0.031 | entospletinib -0.006

NKX2-2 (UniProt O95096)
inactive: [1] 0.199 | vorinostat 0.185 | silmitasertib -0.208 | [2] 0.191 | entospletinib -0.063

NIPSNAP3B (UniProt Q9BS92)
inactive: [1] -0.083 | vorinostat 0.129 | silmitasertib -0.047 | [2] 0.116 | entospletinib 0.15

NLE1 (UniProt Q9NVX2)
inactive: [1] 0.003 | vorinostat 0.105 | silmitasertib -0.005 | [2] -0.043 | entospletinib 0.017

NEBL isoform 2 (UniProt O76041)
inactive: [1] -0.019 | vorinostat 0.146 | silmitasertib -0.019 | [2] -0.016 | entospletinib -0.01

NIPSNAP2 (UniProt O75323)
inactive: [1] 0.01 | vorinostat 0.004 | silmitasertib -0.074 | [2] 0.009 | entospletinib 0.099

NIBAN1 (UniProt Q9BZQ8)
inactive: [1] -0.006 | vorinostat -0.187 | silmitasertib 0.03 | [2] -0.003 | entospletinib 0.014

NDUFV3 isoform 2 (UniProt P56181)
inactive: [1] 0.022 | vorinostat 0.094 | silmitasertib -0.02 | [2] 0.015 | entospletinib -0.006

NDRG3 (UniProt Q9UGV2)
inactive: [1] 0.044 | vorinostat -0.004 | silmitasertib 0.017 | [2] 0.012 | entospletinib 0.009

NDUFB3 (UniProt O43676)
inactive: [1] 0.008 | vorinostat 0.131 | silmitasertib -0.002 | [2] -0.037 | entospletinib -0.021

NFRKB isoform 2 (UniProt Q6P4R8)
inactive: vorinostat -0.182 | silmitasertib -0.014 | [2] 0.101 | entospletinib 0.016

NDUFS8 (UniProt O00217)
inactive: [1] -0.042 | vorinostat 0.124 | silmitasertib 0.02 | [2] 0.009 | entospletinib -0.023

Two entries picked at random from those above, as already listed:
NDUFB3 (UniProt O43676)
inactive: [1] 0.008 | vorinostat 0.131 | silmitasertib -0.002 | [2] -0.037 | entospletinib -0.021

NDRG3 (UniProt Q9UGV2)
inactive: [1] 0.044 | vorinostat -0.004 | silmitasertib 0.017 | [2] 0.012 | entospletinib 0.009

Source: the supplement of paper PMC10849652
